Results taken from PMC7042714.
These are yes or no findings as the source states them, for the method shown.

Biological target: T1, NUP93 (human (endogenous in HeLa)), Q8N1F7
T1 chain: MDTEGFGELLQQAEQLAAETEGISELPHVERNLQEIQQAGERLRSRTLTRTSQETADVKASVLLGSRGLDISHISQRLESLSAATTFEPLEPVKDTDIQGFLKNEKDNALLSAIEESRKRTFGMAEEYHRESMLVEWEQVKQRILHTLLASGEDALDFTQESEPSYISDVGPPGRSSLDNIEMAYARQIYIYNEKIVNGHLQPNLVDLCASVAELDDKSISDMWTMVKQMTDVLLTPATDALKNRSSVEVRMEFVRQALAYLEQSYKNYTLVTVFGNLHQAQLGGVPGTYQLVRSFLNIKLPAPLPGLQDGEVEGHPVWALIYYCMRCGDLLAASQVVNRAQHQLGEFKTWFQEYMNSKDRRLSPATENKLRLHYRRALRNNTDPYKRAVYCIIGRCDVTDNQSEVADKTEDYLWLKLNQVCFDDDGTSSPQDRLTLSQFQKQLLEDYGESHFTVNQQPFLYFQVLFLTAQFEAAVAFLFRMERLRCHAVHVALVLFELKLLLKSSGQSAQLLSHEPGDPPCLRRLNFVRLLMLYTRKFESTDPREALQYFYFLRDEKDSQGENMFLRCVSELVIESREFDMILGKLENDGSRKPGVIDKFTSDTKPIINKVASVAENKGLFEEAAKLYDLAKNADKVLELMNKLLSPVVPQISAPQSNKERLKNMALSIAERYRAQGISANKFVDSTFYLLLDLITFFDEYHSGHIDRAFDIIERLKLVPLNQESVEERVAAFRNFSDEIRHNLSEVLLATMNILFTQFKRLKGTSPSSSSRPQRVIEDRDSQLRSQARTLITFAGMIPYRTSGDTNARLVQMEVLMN
Test: SEC; SEC-SWATH-MS: native extract (0.5% NP-40, freeze-thaw) of HeLa CCL2 cells synchronized in interphase (double thymidine block) or mitosis (thymidine, nocodazole, shake-off); SRT-C-SEC 500 column, 50 mM HEPES pH 7.5, 150 mM NaCl, 0-4°C; 65 fractions profiled by SWATH-MS, triplicates; association inferred from co-elution
Settings: remark: other sources report otherwise

B1: NUP50, Q9UKX7 1-468 (protein)
chain: MAKRNAEKELTDRNWDQEDEAEEVGTFSMASEEVLKNRAIKKAKRRNVGFESDTGGAFKGFKGLVVPSGGGRFSGFGSGAGGKPLEGLSNGNNITSAPPFASAKAAADPKVAFGSLAANGPTTLVDKVSNPKTNGDSQQPSSSGLASSKACVGNAYHKQLAALNCSVRDWIVKHVNTNPLCDLTPIFKDYEKYLANIEQQHGNSGRNSESESNKVAAETQSPSLFGSTKLQQESTFLFHGNKTEDTPDKKMEVASEKKTDPSSLGATSASFNFGKKVDSSVLGSLSSVPLTGFSFSPGNSSLFGKDTTQSKPVSSPFPTKPLEGQAEGDSGECKGGDEEENDEPPKVVVTEVKEEDAFYSKKCKLFYKKDNEFKEKGIGTLHLKPTANQKTQLLVRADTNLGNILLNVLIPPNMPCTRTGKNNVLIVCVPNPPIDEKNATMPVTMLIRVKTSEDADELHKILLEKKDA
binding: no binding
